Measurements taken from patent US20230346837A1.

How the values were obtained:
HLA-B*44:02 (human) [1] = test: UV ligand-exchange ELISA (anti-b2m); exchange yield >10%=+, >20%=++, >50%=+++, >75%=++++; details: remark: other sources report otherwise
HLA-B*44:02 (human) [2] = test: as above

binding (HLA-B*44:02 (human) [1]): binds | binding (HLA-B*44:02 (human) [2]): binds
Binder: QQATPGPAY […]

Like-named read-outs stand apart in the source and are kept apart here. No constants are given. Whether binding was seen depends on the method and setting. Binding calls can cover weak binding; strength is not graded here.
